PubChem BioAssay AID743454 – Peter MacCallum Cancer Centre | 2014

- Aim: 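Knock-downs lowering viability or raising caspase 3/7 activity in vorinostat-treated resistant cells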 (primary screen)
- System: human HCT116-VR colon cancer cells, selected for vorinostat resistance
- Knock-down reagent: siRNA pool against human genes, 40 nM siRNA pool
- Timing: vorinostat for 24 h, read-out about 72 h after transfection
- Treatment: vorinostat at 2.5 µM final
- Detection: 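Two measures, CellTiter-Fluor viability and luminescent caspase 3/7 activity, each as fold change against same-plate mock wells, mean of duplicates, then screen-wide robust z-score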
- Reading the numbers: viability robust z-score: higher = more viable cells than screen typical; caspase robust z-score: higher = more caspase 3/7 activity than screen typical
- Active means: 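a knock-down is a hit when classed RV1 or RV2 for lowered viability, or CA1 or CA2 for caspase activation; those lethal without drug were dropped; hits were retested singly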
The whole screen tested about 18,000 reagents; this is an unselected part. In the full data, 450 (2.5%) were called active. 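Single biological run; no consistent viability z cut-off exists, so the class columns, not z-scores, define the calls.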 Reagent sequences are not shown.

no.	gene knocked down	viability hit class	caspase hit class	viability robust z-score	caspase robust z-score	activity call
1	ANKRD24	no change	no change	0.86	0.16	inactive
2	ACOT1	no change	no change	0.66	-0.93	inactive
3	OR4D9	no change	no change	-0.45	2.33	inactive
4	CTLA4	no change	no change	-0.66	-0.11	inactive
5	WBP4	no change	no change	-1.38	1.16	inactive
6	OR4F5	no change	no change	0.1	-0.82	inactive
7	AP3S1	no change	no change	-1.31	-1.04	inactive
8	RFNG	no change	no change	1.09	-0.86	inactive
9	MLYCD	no change	no change	-0.82	-0.86	inactive
10	GPR137	no change	no change	0.66	0.34	inactive
11	STAG3	no change	no change	0.38	0.4	inactive
12	OR2A1	no change	no change	0.78	1.27	inactive
13	TECPR2	no change	no change	-0.73	3.48	inactive
14	SLC16A8	no change	no change	0.02	-0.56	inactive
15	SYCP1	no change	no change	1.02	1.52	inactive
16	CACYBP	no change	no change	1.03	-0.94	inactive
17	TXNIP	no change	no change	-0.63	1.84	inactive
18	SNX29P1	no change	no change	-0.2	-0.78	inactive
19	SH3GL1	no change	no change	-0.46	-0.12	inactive
20	DCPS	no change	no change	0.69	-0.49	inactive
21	ITLN1	no change	no change	0.95	0.8	inactive
22	EPB41	no change	no change	0.16	-0.49	inactive
23	PLA2G1B	no change	no change	-0.46	0.32	inactive
24	DRC10	no change	no change	0.18	0.72	inactive
25	SESN3	no change	no change	1.25	-0.12	inactive
26	ERLIN1	no change	no change	0.01	-0.74	inactive
27	DKC1	no change	no change	0.26	0.66	inactive
28	CD79B	no change	no change	1.04	-0.48	inactive
29	ADAMTS16	no change	no change	1.1	0.14	inactive
30	ANKFN1	no change	no change	0.34	0.46	inactive
31	EPB41L1	no change	no change	0.29	-1.08	inactive
32	EXD2	no change	no change	1.42	0.06	inactive
33	CHRNB1	no change	no change	0.76	0.18	inactive
34	F2RL3	no change	no change	-1.63	0.36	inactive
35	OR51G1	no change	no change	-0.39	0.36	inactive
36	BAHD1	no change	no change	0.5	2.93	inactive
37	CAPN12	no change	CA2 (caspase activation)	-1.63	5.43	active
38	MTURN	no change	no change	0.34	-0.04	inactive
39	ZNF432	no change	no change	-0.71	-0.17	inactive
40	GPRC6A	no change	no change	-0.08	3.17	inactive
41	CD40LG	no change	no change	-0.05	0.81	inactive
42	GRAMD1B	no change	no change	0.28	-1.09	inactive
43	FKBP11	no change	no change	-0.22	-0.5	inactive
44	SLC25A5	no change	no change	0.84	-0.31	inactive
45	NACC2	no change	no change	-2.32	0.32	inactive
46	CORT	no change	no change	-2.25	-0.52	inactive
47	TEK	no change	no change	1.23	-0.58	inactive
48	VEZT	no change	no change	-0.55	-0.32	inactive
49	TVP23C	no change	CA1 (caspase activation)	-1.04	7.3	active
50	ACOT2	no change	no change	-0.32	2.21	inactive
51	GCLC	no change	no change	0.71	-0.65	inactive
52	ERLIN2	no change	no change	-0.84	1.12	inactive
53	KRTAP1-1	no change	no change	-0.79	0.58	inactive
54	SRR	no change	no change	1.04	0.43	inactive
55	MYO9A	no change	no change	-0.01	-0.43	inactive
56	GOLGA6A	no change	no change	-0.27	0.57	inactive
57	OXER1	no change	no change	1.25	-0.66	inactive

8 entries from above, showing only “viability hit class”:
TVP23C: no change
ACOT2: no change
GCLC: no change
ERLIN2: no change
KRTAP1-1: no change
SRR: no change
MYO9A: no change
GOLGA6A: no change
